Results on 26 targets are retold here after the supplement of paper PMC12819154, “High-throughput peptide-centric local stability assay extends protein–ligand identification to membrane proteins, tissues and bacteria” (Nature Structural & Molecular Biology, 2025).

Amino acid sequences for entries named in this document (tags omitted). A change or cut given only in a name is not applied to a line headed by its entry.
UniProt P55060: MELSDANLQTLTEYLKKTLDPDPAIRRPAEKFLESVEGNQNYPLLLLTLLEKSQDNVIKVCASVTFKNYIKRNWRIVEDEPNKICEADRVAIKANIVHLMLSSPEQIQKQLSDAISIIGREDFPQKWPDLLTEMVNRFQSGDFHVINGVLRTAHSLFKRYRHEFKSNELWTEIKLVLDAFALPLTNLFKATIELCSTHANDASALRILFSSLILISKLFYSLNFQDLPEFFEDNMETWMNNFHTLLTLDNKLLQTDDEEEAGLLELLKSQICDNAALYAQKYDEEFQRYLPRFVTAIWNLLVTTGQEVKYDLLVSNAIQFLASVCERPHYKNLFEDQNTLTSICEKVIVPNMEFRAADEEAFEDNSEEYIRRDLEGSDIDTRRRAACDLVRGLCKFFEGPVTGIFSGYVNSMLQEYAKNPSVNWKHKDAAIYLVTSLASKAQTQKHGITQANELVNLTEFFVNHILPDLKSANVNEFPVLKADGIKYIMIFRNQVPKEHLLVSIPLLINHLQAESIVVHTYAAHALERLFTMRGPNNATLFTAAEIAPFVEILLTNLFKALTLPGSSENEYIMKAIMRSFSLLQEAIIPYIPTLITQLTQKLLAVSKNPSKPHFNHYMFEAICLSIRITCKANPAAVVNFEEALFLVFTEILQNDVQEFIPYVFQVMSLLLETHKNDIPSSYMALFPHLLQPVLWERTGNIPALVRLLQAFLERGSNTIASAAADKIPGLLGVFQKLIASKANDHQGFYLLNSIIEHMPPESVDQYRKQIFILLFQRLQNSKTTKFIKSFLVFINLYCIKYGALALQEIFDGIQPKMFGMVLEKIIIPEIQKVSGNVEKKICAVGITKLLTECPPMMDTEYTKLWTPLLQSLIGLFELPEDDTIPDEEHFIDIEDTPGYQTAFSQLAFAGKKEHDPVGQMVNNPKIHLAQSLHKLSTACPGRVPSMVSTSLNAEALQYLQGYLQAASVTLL
UniProt P63151: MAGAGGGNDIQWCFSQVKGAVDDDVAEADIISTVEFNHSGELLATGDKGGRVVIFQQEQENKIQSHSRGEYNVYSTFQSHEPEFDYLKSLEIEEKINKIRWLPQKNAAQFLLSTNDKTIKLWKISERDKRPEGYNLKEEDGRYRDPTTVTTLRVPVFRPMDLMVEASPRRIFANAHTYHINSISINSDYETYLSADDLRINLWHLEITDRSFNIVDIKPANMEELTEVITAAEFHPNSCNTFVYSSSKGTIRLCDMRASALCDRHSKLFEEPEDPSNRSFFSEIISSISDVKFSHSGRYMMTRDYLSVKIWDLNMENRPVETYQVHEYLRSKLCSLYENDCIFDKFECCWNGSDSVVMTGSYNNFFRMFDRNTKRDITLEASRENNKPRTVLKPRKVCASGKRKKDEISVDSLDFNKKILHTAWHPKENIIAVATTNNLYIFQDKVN
UniProt P81274: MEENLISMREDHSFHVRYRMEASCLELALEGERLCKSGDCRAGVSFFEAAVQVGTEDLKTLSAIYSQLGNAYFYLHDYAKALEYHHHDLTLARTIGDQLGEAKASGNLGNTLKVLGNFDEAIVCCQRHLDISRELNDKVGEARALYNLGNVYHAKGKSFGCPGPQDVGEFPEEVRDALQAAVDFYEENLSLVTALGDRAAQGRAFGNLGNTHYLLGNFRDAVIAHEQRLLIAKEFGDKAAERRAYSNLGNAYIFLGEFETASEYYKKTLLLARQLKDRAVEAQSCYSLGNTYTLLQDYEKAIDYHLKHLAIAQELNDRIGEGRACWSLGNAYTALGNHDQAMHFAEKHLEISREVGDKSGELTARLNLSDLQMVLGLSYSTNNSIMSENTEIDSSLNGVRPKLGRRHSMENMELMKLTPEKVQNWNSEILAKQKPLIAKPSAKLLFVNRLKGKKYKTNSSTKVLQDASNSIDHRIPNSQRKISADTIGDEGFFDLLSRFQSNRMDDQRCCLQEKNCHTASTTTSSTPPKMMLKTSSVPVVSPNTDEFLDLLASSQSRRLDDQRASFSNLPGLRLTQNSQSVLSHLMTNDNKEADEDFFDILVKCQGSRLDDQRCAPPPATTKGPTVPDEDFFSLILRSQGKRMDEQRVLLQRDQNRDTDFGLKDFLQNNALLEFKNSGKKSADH
UniProt P58005: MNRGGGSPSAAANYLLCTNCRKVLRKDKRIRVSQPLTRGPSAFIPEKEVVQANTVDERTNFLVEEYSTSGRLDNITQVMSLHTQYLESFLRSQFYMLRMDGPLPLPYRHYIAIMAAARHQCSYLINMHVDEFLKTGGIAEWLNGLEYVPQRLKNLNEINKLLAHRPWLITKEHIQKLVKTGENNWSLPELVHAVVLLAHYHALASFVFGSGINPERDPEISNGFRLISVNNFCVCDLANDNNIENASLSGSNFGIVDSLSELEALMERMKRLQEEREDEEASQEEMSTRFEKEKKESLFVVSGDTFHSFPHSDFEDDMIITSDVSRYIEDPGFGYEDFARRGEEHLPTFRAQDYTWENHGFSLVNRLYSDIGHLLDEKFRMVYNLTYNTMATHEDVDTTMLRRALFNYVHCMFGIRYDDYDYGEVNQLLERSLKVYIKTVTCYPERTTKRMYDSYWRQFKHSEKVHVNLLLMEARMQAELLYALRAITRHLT
UniProt P57071, whole entry: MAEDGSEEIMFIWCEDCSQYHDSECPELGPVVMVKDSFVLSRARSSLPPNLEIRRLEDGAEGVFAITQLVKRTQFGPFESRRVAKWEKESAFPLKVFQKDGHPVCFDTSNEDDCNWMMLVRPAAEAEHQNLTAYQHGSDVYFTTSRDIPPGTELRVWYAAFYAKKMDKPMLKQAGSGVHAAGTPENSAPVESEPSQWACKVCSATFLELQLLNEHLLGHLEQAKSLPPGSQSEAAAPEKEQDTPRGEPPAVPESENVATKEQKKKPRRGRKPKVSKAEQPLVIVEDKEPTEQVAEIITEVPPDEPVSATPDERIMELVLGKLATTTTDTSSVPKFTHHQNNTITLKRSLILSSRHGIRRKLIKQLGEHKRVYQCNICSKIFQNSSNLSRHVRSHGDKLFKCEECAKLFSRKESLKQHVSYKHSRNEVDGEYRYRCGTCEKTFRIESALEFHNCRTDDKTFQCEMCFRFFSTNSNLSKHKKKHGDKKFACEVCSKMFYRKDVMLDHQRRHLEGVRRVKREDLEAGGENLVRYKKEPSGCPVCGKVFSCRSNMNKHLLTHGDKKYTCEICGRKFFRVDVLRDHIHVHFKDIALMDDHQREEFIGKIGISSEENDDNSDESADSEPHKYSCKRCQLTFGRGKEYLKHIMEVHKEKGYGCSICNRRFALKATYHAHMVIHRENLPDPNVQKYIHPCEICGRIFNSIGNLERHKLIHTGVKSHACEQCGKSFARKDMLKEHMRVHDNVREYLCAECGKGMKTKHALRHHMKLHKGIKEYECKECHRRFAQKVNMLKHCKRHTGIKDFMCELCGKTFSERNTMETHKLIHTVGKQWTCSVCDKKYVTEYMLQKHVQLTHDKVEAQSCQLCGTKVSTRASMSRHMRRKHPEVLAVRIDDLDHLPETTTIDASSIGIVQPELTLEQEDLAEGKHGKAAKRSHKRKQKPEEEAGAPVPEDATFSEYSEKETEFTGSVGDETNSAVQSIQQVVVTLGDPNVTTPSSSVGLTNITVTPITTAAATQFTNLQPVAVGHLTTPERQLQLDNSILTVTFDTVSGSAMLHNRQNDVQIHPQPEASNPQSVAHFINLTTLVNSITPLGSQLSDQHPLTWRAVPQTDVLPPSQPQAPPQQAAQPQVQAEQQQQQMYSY
UniProt P55199: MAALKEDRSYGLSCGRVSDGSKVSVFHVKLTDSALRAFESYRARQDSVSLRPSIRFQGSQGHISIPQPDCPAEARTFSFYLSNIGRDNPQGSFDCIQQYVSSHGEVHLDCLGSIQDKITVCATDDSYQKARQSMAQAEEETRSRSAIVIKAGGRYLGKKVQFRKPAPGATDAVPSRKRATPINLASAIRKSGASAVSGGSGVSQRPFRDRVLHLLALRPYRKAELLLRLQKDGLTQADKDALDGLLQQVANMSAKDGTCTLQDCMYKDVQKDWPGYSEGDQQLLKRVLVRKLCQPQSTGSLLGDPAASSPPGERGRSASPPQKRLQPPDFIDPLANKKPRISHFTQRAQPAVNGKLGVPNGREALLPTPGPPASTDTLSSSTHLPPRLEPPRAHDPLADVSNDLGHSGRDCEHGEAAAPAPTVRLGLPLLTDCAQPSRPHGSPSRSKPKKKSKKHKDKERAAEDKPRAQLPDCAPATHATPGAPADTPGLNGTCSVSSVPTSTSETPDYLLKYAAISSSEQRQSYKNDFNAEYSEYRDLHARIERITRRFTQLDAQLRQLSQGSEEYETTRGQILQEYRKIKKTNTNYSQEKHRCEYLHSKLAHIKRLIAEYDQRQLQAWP
UniProt P61966: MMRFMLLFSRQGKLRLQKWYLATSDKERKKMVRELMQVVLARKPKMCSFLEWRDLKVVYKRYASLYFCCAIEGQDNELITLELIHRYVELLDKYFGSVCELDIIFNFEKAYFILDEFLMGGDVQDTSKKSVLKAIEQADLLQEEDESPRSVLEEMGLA
UniProt P57737: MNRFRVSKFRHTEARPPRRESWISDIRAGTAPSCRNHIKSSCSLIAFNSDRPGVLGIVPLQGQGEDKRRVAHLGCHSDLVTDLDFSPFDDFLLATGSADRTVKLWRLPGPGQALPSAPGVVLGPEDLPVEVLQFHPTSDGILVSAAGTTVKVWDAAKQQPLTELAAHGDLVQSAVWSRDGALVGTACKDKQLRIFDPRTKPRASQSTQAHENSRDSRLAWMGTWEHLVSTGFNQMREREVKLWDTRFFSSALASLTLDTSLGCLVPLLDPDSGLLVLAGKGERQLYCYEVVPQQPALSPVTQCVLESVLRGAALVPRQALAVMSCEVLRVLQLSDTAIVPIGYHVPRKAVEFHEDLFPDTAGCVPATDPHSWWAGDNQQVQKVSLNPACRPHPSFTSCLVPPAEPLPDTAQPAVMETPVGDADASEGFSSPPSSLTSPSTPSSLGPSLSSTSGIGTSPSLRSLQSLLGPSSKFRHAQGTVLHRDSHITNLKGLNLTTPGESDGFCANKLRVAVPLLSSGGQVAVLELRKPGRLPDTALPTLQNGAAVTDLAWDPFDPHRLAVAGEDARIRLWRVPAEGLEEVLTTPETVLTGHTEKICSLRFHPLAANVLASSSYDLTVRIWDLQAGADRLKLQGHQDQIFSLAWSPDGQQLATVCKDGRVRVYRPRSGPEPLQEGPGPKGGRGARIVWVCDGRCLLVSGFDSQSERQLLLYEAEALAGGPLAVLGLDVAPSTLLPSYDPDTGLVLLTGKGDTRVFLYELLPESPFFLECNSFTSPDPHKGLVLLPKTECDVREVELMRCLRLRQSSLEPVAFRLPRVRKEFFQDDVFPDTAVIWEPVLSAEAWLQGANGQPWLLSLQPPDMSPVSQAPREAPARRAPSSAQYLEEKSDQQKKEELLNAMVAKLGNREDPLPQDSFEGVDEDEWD
UniProt P78537: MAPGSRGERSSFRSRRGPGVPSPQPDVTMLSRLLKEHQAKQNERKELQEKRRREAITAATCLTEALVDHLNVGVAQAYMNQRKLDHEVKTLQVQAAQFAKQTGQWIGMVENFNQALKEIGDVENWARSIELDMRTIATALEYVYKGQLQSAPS
UniProt P60983, whole entry: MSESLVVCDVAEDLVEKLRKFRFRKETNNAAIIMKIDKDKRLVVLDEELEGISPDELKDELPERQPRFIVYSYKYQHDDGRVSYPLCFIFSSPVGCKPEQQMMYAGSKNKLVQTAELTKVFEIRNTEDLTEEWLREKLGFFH
UniProt P62191: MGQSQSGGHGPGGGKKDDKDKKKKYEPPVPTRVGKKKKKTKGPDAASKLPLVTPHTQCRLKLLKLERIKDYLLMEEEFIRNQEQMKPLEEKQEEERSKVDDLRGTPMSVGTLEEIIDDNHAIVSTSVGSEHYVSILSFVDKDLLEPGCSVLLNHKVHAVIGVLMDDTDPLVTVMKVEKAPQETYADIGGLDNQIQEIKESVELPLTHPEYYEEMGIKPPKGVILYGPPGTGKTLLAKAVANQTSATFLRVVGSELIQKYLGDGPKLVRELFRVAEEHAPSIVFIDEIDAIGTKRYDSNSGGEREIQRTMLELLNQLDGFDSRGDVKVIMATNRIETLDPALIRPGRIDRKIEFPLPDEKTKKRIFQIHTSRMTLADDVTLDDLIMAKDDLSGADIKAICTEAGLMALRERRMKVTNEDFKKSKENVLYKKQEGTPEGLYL
UniProt P61020: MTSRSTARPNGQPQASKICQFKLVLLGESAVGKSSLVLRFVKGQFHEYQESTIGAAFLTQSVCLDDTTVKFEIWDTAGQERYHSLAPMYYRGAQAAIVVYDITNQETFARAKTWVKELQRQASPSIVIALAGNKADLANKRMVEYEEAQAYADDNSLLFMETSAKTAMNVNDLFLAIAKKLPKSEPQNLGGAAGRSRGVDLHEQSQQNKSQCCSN
UniProt P78317: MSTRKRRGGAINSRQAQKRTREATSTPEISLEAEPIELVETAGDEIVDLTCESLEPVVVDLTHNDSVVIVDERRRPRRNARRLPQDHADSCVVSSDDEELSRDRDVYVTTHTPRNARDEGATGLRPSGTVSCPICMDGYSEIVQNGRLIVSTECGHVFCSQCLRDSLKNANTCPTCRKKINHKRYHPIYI

This is one part of the list. Most values lie at the level of the controls, where differences are scatter.

Compound in the test: Cc1nc(Nc2ncc(C(=O)Nc3c(C)cccc3Cl)s2)cc(N2CCN(CCO)CC2)n1 [dasatinib]
The test can be described thus: log2 fold change of tryptic peptide abundance, ligand vs vehicle (limited proteolysis) (log2 ratio); higher = more trypsin-susceptible (destabilized). The conditions noted are these: ligand concentration: 5 uM; sample: K562 cleared lysate.
Regarding “CSE1L (peptide sequence: ANIVHLMLSSPEQIQK, peptide start residue: 94) (UniProt P55060)”, the log2 fold change is -0.198.
In the case of “UniProt P63151 (peptide sequence: INLWHLEITDR, peptide start residue: 200)”, the log2 fold change is -0.0673.
Under “UniProt P56381 (peptide sequence: DALKTEFKANAEK, peptide start residue: 25)” stands -0.468.
“GPSM2 (peptide sequence: KYKTNSSTK, peptide start residue: 454) (UniProt P81274)”: the log2 fold change was -0.638.
As to “GSTO1 (peptide sequence: VPSLVGSFIR, peptide start residue: 123) (UniProt P78417)”, the log2 fold change came out at 0.675.
As for “UniProt P58005 (peptide sequence: AQDYTWENHGFSLVNR, peptide start residue: 351)”, the figure is -0.563; as for “UniProt P62851 (peptide sequence: NTKGGDAPAAGEDA, peptide start residue: 112)”, 0.29; as for “PRDM15 (peptide sequence: LATTTTDTSSVPK, peptide start residue: 688) (UniProt P57071)”, 0.163.
For “UniProt P63000 (peptide sequence: KLTPITYPQGLAMAK, peptide start residue: 133)”, the log2 fold change is -0.417.
Under “RAE1 (peptide sequence: NAAEELKPR, peptide start residue: 357) (UniProt P78406)” stands -0.494; under “ELL (peptide sequence: TNTNYSQEK, peptide start residue: 584) (UniProt P55199)”, 0.163.
For the target “HSPE1 (peptide sequence: FLPLFDR, peptide start residue: 9) (UniProt P61604)”, the log2 fold change is -0.133.
Take “RELN (peptide sequence: LSSYHNFYSIR, peptide start residue: 720) (UniProt P78509)”: the log2 fold change came to 0.524.
For “UniProt P61966 (peptide sequence: ELMQVVLAR, peptide start residue: 34)”, the log2 fold change is -0.152.
On to “CORO7 (peptide sequence: IVWVCDGR, peptide start residue: 687) (UniProt P57737)”, for which the log2 fold change was -0.285.
As for “BLOC1S1 (peptide sequence: RGPGVPSPQPDVTMLSR, peptide start residue: 16) (UniProt P78537)”, the figure is 0.316.
Under “UniProt P62826 (peptide sequence: AAQGEPQVQFK, peptide start residue: 2)” stands 0.111; under “RPL38 (peptide sequence: CSRYLYTLVITDKEK, peptide start residue: 38) (UniProt P63173)”, 0.172; under “GMFB (peptide sequence: EKLGFFH, peptide start residue: 136) (UniProt P60983)”, 0.308.
Take “UniProt P55196 (peptide sequence: YVLSNQYRPDISPTER, peptide start residue: 644)”: the log2 fold change is -0.193.
Turning to “UniProt P62191 (peptide sequence: TKGPDAASKLPLVTPHTQCR, peptide start residue: 40)”, the log2 fold change came out at 0.177.
On to “UniProt P61020 (peptide sequence: SRGVDLHEQSQQNK, peptide start residue: 196)”, for which the log2 fold change was determined as 0.117.
In the case of “UniProt P57723 (peptide sequence: ITISEGSCPER, peptide start residue: 51)”, the log2 fold change was -0.249.
For the target “RNF4 (peptide sequence: LIVSTECGHVFCSQCLRDSLK, peptide start residue: 148) (UniProt P78317)”, the log2 fold change is -0.802.
Under “RPS3A (peptide sequence: KTSYAQHQQVRQIR, peptide start residue: 152) (UniProt P61247)” stands 2.19; under “UniProt P54792 (peptide sequence: NVLSNRPVHAYK, peptide start residue: 35)”, -0.804.
